Reference: the supplement of paper PMC8728848
This is one part of the list.

How the values were obtained:
Assay in all cases: glycan array binding signal (z-score within array); higher = stronger binding
Conditions in all cases: glycan notation: IUPAC condensed, linker removed
Gal(a1-3)GalNAc = molecular target: Gal(a1-3)GalNAc
Procedure, shortened: (§1)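 Glycan array binding is given as a within-array Z-score, which can be read as non-binding when negative. The arrays, 3228 of them, came from the Consortium for Functional Glycomics database and were retained only where the protein sequence was available. Z-scores were averaged across arrays of the same protein sequence at different concentrations or buffers and across linkers.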

[1] = molecular target: Gal(a1-3)[Gal(a1-4)]Gal(b1-4)GlcNAc
Procedure, shortened: as §1

[2] = molecular target: Gal(a1-4)Gal(b1-3)GlcNAc(b1-2)Man(a1-3)[Gal(a1-4)Gal(b1-3)GlcNAc(b1-2)Man(a1-6)]Man(b1-4)GlcNAc(b1-4)GlcNAc
Procedure, shortened: as §1

Gal(a1-4)Gal(b1-4)Glc = molecular target: Gal(a1-4)Gal(b1-4)Glc
Procedure, shortened: as §1

Gal(a1-4)Gal(b1-4)GlcNAc = molecular target: Gal(a1-4)Gal(b1-4)GlcNAc
Procedure, shortened: as §1

[3] = molecular target: Gal(a1-4)Gal(b1-4)GlcNAc(b1-2)Man(a1-3)[Gal(a1-4)Gal(b1-4)GlcNAc(b1-2)Man(a1-6)]Man(b1-4)GlcNAc(b1-4)GlcNAc
Procedure, shortened: as §1

[4] = molecular target: Gal(a1-4)Gal(b1-4)GlcNAc(b1-3)Gal(b1-4)Glc
Procedure, shortened: as §1

Gal(a1-4)GlcNAc = molecular target: Gal(a1-4)GlcNAc
Procedure, shortened: as §1

Gal(a1-6)Glc = molecular target: Gal(a1-6)Glc
Procedure, shortened: as §1

Gal(b1-2)Gal = molecular target: Gal(b1-2)Gal
Procedure, shortened: as §1

Gal(b1-3)Gal = molecular target: Gal(b1-3)Gal
Procedure, shortened: as §1

Gal(b1-3)Gal(b1-4)GlcNAc = molecular target: Gal(b1-3)Gal(b1-4)GlcNAc
Procedure, shortened: as §1

Gal(b1-3)GalNAc = molecular target: Gal(b1-3)GalNAc
Procedure, shortened: as §1

[5] = molecular target: Gal(b1-3)GalNAc(a1-3)[Fuc(a1-2)]Gal(b1-4)Glc
Procedure, shortened: as §1

[6] = molecular target: Gal(b1-3)GalNAc(a1-3)[Fuc(a1-2)]Gal(b1-4)GlcNAc
Procedure, shortened: as §1

Gal(b1-3)GalNAc(b1-3)Gal = molecular target: Gal(b1-3)GalNAc(b1-3)Gal
Procedure, shortened: as §1

[7] = molecular target: Gal(b1-3)GalNAc(b1-3)Gal(a1-4)Gal(b1-4)Glc
Procedure, shortened: as §1

[8] = molecular target: Gal(b1-3)GalNAc(b1-4)Gal(b1-4)Glc
Procedure, shortened: as §1

[9] = molecular target: Gal(b1-3)GalNAc(b1-4)[Neu5Ac(a2-3)]Gal(b1-4)Glc
Procedure, shortened: as §1

Gal(b1-3)GlcNAc = molecular target: Gal(b1-3)GlcNAc
Procedure, shortened: as §1

[10] = molecular target: Gal(b1-3)GlcNAc(a1-3)Gal(b1-4)GlcNAc
Procedure, shortened: as §1

[11] = molecular target: Gal(b1-3)GlcNAc(a1-6)Gal(b1-4)GlcNAc
Procedure, shortened: as §1

Gal(b1-3)GlcNAc(b1-2)Man = molecular target: Gal(b1-3)GlcNAc(b1-2)Man
Procedure, shortened: as §1

[12] = molecular target: Gal(b1-3)GlcNAc(b1-2)Man(a1-3)[Gal(b1-3)GlcNAc(b1-2)Man(a1-6)]Man(b1-4)GlcNAc(b1-4)GlcNAc
Procedure, shortened: as §1

[13] = molecular target: Gal(b1-3)GlcNAc(b1-2)Man(a1-3)[Gal(b1-3)GlcNAc(b1-2)Man(a1-6)]Man(b1-4)GlcNAc(b1-4)[Fuc(a1-6)]GlcNAc
Procedure, shortened: as §1

[14] = molecular target: Gal(b1-3)GlcNAc(b1-2)Man(a1-3)[GlcNAc(b1-4)][Gal(b1-3)GlcNAc(b1-2)Man(a1-6)]Man(b1-4)GlcNAc(b1-4)GlcNAc
Procedure, shortened: as §1

[15] = molecular target: Gal(b1-3)GlcNAc(b1-2)[Gal(b1-3)GlcNAc(b1-6)]Man(a1-6)[Gal(b1-3)GlcNAc(b1-2)Man(a1-3)]Man(b1-4)GlcNAc(b1-4)GlcNAc
Procedure, shortened: as §1

[16] = molecular target: Gal(b1-3)GlcNAc(b1-3)Gal(b1-3)GlcNAc
Procedure, shortened: as §1

[17] = molecular target: Gal(b1-3)GlcNAc(b1-3)Gal(b1-4)Glc
Procedure, shortened: as §1

[18] = molecular target: Gal(b1-3)GlcNAc(b1-3)Gal(b1-4)GlcNAc
Procedure, shortened: as §1

[19] = molecular target: Gal(b1-3)GlcNAc(b1-3)Gal(b1-4)GlcNAc(b1-2)Man(a1-3)[Gal(b1-3)GlcNAc(b1-3)Gal(b1-4)GlcNAc(b1-2)Man(a1-6)]Man(b1-4)GlcNAc(b1-4)GlcNAc
Procedure, shortened: as §1

[20] = molecular target: Gal(b1-3)GlcNAc(b1-3)Gal(b1-4)GlcNAc(b1-2)[Gal(b1-3)GlcNAc(b1-3)Gal(b1-4)GlcNAc(b1-6)]Man(a1-6)[Gal(b1-3)GlcNAc(b1-3)Gal(b1-4)GlcNAc(b1-2)Man(a1-3)]Man(b1-4)GlcNAc(b1-4)[Fuc(a1-6)]GlcNAc
Procedure, shortened: as §1

[21] = molecular target: Gal(b1-3)GlcNAc(b1-3)Gal(b1-4)GlcNAc(b1-3)Gal(b1-4)GlcNAc(b1-2)[Gal(b1-3)GlcNAc(b1-3)Gal(b1-4)GlcNAc(b1-3)Gal(b1-4)GlcNAc(b1-6)]Man(a1-6)[Gal(b1-3)GlcNAc(b1-3)Gal(b1-4)GlcNAc(b1-3)Gal(b1-4)GlcNAc(b1-2)Man(a1-3)]Man(b1-4)GlcNAc(b1-4)[Fuc(a1-6)]GlcNAc
Procedure, shortened: as §1

[22] = molecular target: Gal(b1-3)GlcNAc(b1-3)Gal(b1-4)GlcNAc(b1-6)[Gal(b1-3)GlcNAc(b1-3)]Gal(b1-4)Glc
Procedure, shortened: as §1

[23] = molecular target: Gal(b1-3)GlcNAc(b1-3)Gal(b1-4)[Fuc(a1-3)]GlcNAc
Procedure, shortened: as §1

[24] = molecular target: Gal(b1-3)GlcNAc(b1-3)Gal(b1-4)[Fuc(a1-3)]GlcNAc(b1-6)[Gal(b1-3)GlcNAc(b1-3)]Gal(b1-4)Glc
Procedure, shortened: as §1

[25] = molecular target: Gal(b1-3)GlcNAc(b1-3)GalNAc
Procedure, shortened: as §1

[26] = molecular target: Gal(b1-3)GlcNAc(b1-6)Gal(b1-4)GlcNAc
Procedure, shortened: as §1

B1: SUN4 (Saccharomyces cerevisiae), P53616 (protein)
chain: MGSSHHHHHHSSGLVPRGSHNGSIYGDLADFSGPYEKFEDGTIPCGQFPSGQGVIPISWLDEGGWSGVENTDTSTGGSCKEGSYCSYACQPGMSKTQWPSDQPSDGRSIGGLLCKDGYLYRSNTDTDYLCEWGVDAAYVVSELSNDVAICRTDYPGTENMVIPTYVQAGDSLPLTVVDQDTYYTWQGLKTSAQYYVNNAGISVEDACVWGSSSSGVGNWAPLNFGAGSSDGVAYLSLIPNPNNGNALNFNVKIVAADDSSTVNGECIYENGSFSGGSDGCTVSVTAGKAKFVLYN
Q: How did the “glycan array binding signal (z-score)” value (Gal(a1-3)GalNAc) turn out when B1 was run?
A: The value was 0.121.

Q: What about the “glycan array binding signal (z-score)” value [1] of the same binder?
A: The value was 0.945.

Q: What about the “glycan array binding signal (z-score)” value [2] of the same binder?
A: Its value is -0.153.

Q: And the “glycan array binding signal (z-score)” value (Gal(a1-4)Gal(b1-4)Glc)?
A: The value was 0.787.

Q: And the “glycan array binding signal (z-score)” value (Gal(a1-4)Gal(b1-4)GlcNAc)?
A: Its value is -0.358.

Q: And the “glycan array binding signal (z-score)” value [3]?
A: The value was 1.4.

Q: And the “glycan array binding signal (z-score)” value [4]?
A: The value was -0.077.

Q: And the “glycan array binding signal (z-score)” value (Gal(a1-4)GlcNAc)?
A: The value was -0.933.

Q: And the “glycan array binding signal (z-score)” value (Gal(a1-6)Glc)?
A: The value was -1.22.

Q: What about the “glycan array binding signal (z-score)” value (Gal(b1-2)Gal) of the same binder?
A: The value was 0.236.

Q: And the “glycan array binding signal (z-score)” value (Gal(b1-3)Gal)?
A: The value was 0.331.

Q: What about the “glycan array binding signal (z-score)” value (Gal(b1-3)Gal(b1-4)GlcNAc) of the same binder?
A: Its value is 0.303.

Q: What about the “glycan array binding signal (z-score)” value (Gal(b1-3)GalNAc) of the same binder?
A: Its value is -0.297.

Q: And the “glycan array binding signal (z-score)” value [5]?
A: Its value is -0.308.

Q: And the “glycan array binding signal (z-score)” value [6]?
A: The value was 0.109.

Q: And the “glycan array binding signal (z-score)” value (Gal(b1-3)GalNAc(b1-3)Gal)?
A: Its value is -0.668.

Q: And the “glycan array binding signal (z-score)” value [7]?
A: The value was 0.295.

Q: What about the “glycan array binding signal (z-score)” value [8] of the same binder?
A: The value was 0.219.

Q: What about the “glycan array binding signal (z-score)” value [9] of the same binder?
A: Its value is -0.591.

Q: And the “glycan array binding signal (z-score)” value (Gal(b1-3)GlcNAc)?
A: Its value is -0.679.

Q: And the “glycan array binding signal (z-score)” value [10]?
A: Its value is 0.196.

Q: What about the “glycan array binding signal (z-score)” value [11] of the same binder?
A: The value was -0.44.

Q: What about the “glycan array binding signal (z-score)” value (Gal(b1-3)GlcNAc(b1-2)Man) of the same binder?
A: Its value is 0.274.

Q: And the “glycan array binding signal (z-score)” value [12]?
A: Its value is -0.74.

Q: And the “glycan array binding signal (z-score)” value [13]?
A: Its value is -0.257.

Q: And the “glycan array binding signal (z-score)” value [14]?
A: Its value is -0.166.

Q: What about the “glycan array binding signal (z-score)” value [15] of the same binder?
A: The value was -0.743.

Q: And the “glycan array binding signal (z-score)” value [16]?
A: The value was 0.197.

Q: What about the “glycan array binding signal (z-score)” value [17] of the same binder?
A: The value was 0.536.

Q: And the “glycan array binding signal (z-score)” value [18]?
A: Its value is -0.542.

Q: What about the “glycan array binding signal (z-score)” value [19] of the same binder?
A: Its value is 0.342.

Q: What about the “glycan array binding signal (z-score)” value [20] of the same binder?
A: The value was 1.49.

Q: What about the “glycan array binding signal (z-score)” value [21] of the same binder?
A: Its value is 0.455.

Q: And the “glycan array binding signal (z-score)” value [22]?
A: Its value is -0.058.

Q: What about the “glycan array binding signal (z-score)” value [23] of the same binder?
A: The value was 0.131.

Q: And the “glycan array binding signal (z-score)” value [24]?
A: Its value is -0.488.

Q: And the “glycan array binding signal (z-score)” value [25]?
A: Its value is -0.163.

Q: And the “glycan array binding signal (z-score)” value [26]?
A: Its value is -0.721.
